Reference: US11999802B2, “Compositions and methods for selective protein degradation” (Novartis AG, priority 2017, dated 2024)
At least one compound was matched to its structure with a doubt left.

Tested on: CAR19 constructs with HilD tag and/or FurON
Experiment: Flow cytometry of surface CAR19 expression on transduced JNL cells
Assay type: cell-based
Details: with or without bazedoxifene

## Cc1c(-c2ccc(O)cc2)n(Cc2ccc(OCCN3CCCCCC3)cc2)c2ccc(O)cc12 [bazedoxifene, Bazedoxifene]
  surface CAR expression of FurON-CAR19 constructs: only detected in the presence of bazedoxifene
